Test results taken from PMC7407560.
Positions count from the first letter of the chain named. In names and notes the source's numbering stands. Results are given in words; binding and its absence hold for the method and conditions named. For some of these results: Binding seen in cells or lysates may run through a third protein. Some binding calls cover weakened binding; strength is not graded here. For some of these results: Sequences can lack the tags named with a protein.

By UniProt entry, the sequences of proteins in these tests, tags left out. Where a name states a change or a piece, a line headed by the entry shows the natural chain unless it says otherwise.
UniProt P02453: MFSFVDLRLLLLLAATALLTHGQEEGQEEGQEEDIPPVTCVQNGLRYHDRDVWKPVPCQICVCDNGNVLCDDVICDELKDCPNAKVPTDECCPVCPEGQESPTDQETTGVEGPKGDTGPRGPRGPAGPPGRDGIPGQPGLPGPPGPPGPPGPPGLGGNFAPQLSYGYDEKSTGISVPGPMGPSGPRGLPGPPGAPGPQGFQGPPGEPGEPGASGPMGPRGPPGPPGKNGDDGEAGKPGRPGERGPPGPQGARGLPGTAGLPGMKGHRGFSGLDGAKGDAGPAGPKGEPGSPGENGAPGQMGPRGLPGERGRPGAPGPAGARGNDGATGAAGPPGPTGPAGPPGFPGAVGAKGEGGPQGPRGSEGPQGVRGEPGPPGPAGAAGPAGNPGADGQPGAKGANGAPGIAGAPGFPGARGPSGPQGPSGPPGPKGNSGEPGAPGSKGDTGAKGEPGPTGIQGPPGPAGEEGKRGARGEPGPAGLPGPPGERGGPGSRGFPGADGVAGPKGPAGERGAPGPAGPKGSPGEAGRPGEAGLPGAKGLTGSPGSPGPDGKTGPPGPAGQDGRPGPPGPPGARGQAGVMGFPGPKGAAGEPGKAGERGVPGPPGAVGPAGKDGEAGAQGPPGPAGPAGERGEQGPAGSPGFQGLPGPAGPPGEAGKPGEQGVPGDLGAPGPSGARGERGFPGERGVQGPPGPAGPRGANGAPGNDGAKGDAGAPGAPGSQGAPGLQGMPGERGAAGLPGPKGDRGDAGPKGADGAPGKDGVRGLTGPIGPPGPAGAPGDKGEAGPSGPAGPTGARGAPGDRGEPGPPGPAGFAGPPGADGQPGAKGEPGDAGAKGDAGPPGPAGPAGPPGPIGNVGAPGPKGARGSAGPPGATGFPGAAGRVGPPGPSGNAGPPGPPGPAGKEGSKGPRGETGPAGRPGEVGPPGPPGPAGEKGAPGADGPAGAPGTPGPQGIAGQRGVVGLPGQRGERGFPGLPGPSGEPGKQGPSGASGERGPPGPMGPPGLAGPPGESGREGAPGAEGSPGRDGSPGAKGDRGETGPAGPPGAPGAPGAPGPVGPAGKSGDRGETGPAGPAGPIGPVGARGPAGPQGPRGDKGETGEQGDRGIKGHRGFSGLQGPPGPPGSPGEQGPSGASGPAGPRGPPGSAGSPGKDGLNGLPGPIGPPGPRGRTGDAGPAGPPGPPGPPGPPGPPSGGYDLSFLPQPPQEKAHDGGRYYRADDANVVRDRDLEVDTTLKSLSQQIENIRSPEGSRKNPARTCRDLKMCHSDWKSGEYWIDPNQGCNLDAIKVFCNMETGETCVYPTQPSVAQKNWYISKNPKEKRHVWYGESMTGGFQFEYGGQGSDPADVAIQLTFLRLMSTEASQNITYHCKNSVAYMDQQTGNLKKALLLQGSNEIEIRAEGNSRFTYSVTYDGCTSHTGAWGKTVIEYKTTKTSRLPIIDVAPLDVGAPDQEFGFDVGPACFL
UniProt P02465: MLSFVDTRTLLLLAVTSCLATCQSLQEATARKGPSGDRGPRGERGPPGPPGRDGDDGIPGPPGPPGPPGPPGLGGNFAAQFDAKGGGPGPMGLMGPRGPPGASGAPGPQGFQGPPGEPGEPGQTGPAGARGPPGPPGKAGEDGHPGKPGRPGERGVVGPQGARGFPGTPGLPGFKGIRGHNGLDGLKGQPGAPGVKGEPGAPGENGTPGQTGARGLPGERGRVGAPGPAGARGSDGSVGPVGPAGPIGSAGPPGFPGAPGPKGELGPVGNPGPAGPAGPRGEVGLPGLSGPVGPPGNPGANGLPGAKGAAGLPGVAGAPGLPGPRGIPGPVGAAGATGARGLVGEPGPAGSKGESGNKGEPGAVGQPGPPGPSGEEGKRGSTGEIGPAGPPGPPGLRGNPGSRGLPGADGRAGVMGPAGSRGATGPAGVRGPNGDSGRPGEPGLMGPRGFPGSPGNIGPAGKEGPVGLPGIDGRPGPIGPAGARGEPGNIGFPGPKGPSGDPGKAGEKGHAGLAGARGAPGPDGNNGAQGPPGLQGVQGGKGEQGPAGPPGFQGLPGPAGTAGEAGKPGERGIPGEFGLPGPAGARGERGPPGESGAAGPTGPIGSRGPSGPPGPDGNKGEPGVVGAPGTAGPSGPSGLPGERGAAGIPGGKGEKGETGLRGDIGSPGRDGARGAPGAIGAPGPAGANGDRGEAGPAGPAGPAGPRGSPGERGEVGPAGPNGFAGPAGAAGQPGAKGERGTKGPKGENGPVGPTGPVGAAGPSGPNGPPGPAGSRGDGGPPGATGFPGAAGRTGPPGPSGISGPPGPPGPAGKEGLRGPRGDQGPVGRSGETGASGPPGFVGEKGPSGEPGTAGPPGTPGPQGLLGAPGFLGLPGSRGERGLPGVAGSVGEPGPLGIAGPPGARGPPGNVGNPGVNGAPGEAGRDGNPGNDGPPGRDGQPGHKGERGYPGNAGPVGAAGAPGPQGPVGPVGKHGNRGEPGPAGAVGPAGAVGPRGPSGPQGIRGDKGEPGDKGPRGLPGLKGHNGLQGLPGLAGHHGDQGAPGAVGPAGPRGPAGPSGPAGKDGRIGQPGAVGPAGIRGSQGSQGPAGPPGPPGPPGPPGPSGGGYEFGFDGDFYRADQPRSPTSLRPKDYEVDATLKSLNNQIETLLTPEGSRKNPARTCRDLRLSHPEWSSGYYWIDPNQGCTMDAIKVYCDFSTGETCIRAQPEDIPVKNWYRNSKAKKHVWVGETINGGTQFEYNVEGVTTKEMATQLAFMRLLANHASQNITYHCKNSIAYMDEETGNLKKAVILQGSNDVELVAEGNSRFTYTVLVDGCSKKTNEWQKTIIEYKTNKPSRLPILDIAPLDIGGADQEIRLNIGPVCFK
UniProt P97434: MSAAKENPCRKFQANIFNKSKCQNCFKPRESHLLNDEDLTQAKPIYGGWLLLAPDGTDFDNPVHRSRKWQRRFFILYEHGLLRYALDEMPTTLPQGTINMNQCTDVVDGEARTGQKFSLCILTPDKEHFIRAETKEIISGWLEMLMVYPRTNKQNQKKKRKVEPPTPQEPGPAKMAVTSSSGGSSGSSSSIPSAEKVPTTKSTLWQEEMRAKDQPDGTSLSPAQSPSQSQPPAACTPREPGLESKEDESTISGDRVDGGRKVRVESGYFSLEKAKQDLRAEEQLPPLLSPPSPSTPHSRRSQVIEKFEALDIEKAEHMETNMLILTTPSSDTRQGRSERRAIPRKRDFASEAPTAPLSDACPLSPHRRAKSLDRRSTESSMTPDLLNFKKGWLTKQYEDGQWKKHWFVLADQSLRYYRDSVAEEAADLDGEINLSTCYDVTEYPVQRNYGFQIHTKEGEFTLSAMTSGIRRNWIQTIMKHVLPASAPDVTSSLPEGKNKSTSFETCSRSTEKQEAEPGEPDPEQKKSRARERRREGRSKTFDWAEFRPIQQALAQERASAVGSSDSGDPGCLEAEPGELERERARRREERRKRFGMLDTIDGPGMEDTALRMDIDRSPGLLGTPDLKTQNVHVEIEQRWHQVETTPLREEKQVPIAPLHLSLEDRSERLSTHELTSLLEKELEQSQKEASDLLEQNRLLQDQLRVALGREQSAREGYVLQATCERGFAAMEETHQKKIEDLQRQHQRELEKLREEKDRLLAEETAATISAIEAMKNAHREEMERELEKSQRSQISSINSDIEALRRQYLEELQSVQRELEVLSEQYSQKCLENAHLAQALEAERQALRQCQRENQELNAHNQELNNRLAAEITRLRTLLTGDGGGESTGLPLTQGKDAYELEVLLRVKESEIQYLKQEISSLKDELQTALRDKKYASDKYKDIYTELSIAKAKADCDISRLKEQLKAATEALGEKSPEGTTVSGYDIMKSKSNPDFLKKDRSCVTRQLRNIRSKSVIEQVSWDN

B1: mouse DDR1b-YFP (full-length kinase-active isoform) (receptor, UniProt Q03146 20-911)
chain: DADMKGHFDPAKCRYALGMQDRTIPDSDISVSSSWSDSTAARHSRLESSDGDGAWCPAGPVFPKEEEYLQVDLRRLHLVALVGTQGRHAGGLGKEFSRSYRLRYSRDGRRWMDWKDRWGQEVISGNEDPGGVVLKDLGPPMVARLVRFYPRADRVMSVCLRVELYGCLWRDGLLSYTAPVGQTMQLSEVMVHLNDSTYDGYTAGGLQYGGLGQLADGVVGLDDFRQSQELRVWPGYDYVGWSNQSFPTGYVEMEFEFDRLRTFQTMQVHCNNMHTLGARLPGGVECRFKRGPAMAWEGEPVRHALGGSLGDPRARAISVPLGGHVGRFLQCRFLFAGPWLLFSEISFISDVVNDSSDTFPPAPWWPPGPPPTNFSSLELEPRGQQPVAKAEGSPTAILIGCLVAIILLLLLIIALMLWRLHWRRLLSKAERRVLEEELTVHLSVPGDTILINNRPGPREPPPYQEPRPRGTPPHSAPCVPNGSALLLSNPAYRLLLATYARPPRGPGPPTPAWAKPTNTQACSGDYMEPEKPGAPLLPPPPQNSVPHYAEADIVTLQGVTGGNTYAVPALPPGAVGDGPPRVDFPRSRLRFKEKLGEGQFGEVHLCEVEDPQDLVSSDFPISVHKGHPLLVAVKILRPDATKNARNDFLKEVKIMSRLKDPNIIRLLGVCVQDDPLCMITDYMENGDLNQFLSARQLENKATQGLSGDTESDQGPTISYPMLLHVGAQIASGMRYLATLNFVHRDLATRNCLVGENFTIKIADFGMSRNLYAGDYYRVQGRAVLPIRWMAWECILMGKFTTASDVWAFGVTLWEVLMLCRSQPFGQLTDEQVIENAGEFFRDQGRQVYLSRPPACPQTLYELMLRCWSREPEQRPPFAQLHRFLADDALNTV
B2: mouse DDR1b K653A-YFP (point mutation in ATP binding site) (receptor, UniProt Q03146 20-911)
chain: B1 chain with K634A

What was measured:
[1] = biological target: DDR1 (b-isoform) stably overexpressed in GD25 cells (GD25 OE) (UniProt Q08345); assay: co-IP; lysates in 20 mM Tris pH 7.5, 1% Triton X-100, 0.1% SDS, 150 mM CaCl (so in the source); Dyna-beads Protein G; cells cultured on fibrillar collagen or fibronectin; GD25 OE and OE MRIP-/- cells; immunoblot
[2] = biological target: fibrillar bovine type I collagen on magnetite beads (bovine) (UniProt P02453+P02465); assay: isolation of collagen bead-associated adhesion complexes; fibrillar collagen-coated magnetite beads on the dorsal surface of GD25 OE or OE MRIP-/- cells for 1 or 2 h; extraction in 0.5% Triton X-100 cytoskeleton buffer, magnetic separation, immunoblot; only the target purified
[3] = biological target: T1, mouse DDR1b-YFP (full-length kinase-active isoform) (mouse) (UniProt Q03146); assay: FRET or BRET; acceptor photobleaching FRET in cells co-transfected with CFP donor and YFP acceptor, cultured on collagen or fibronectin; GD25 WT or WT MRIP-/- cells
T1 sequence: B1 chain

| Molecule | binding [3] | other results |
| --- | --- | --- |
| myosin phosphatase Rho-interacting protein (MRIP) (from UniProt P97434 1-1024) | – | binding [1]: binds |
| DDR1 (b-isoform) stably overexpressed in GD25 cells (GD25 OE) (from UniProt Q08345-1 19-913) (receptor) | – | binding [2]: binds |
| B1 | binds | – |
| B2 | binds | – |
